Data taken from patent publication US20240228599A1.
No constants are given. Whether binding was seen depends on the method and setting.

Target: cynomolgus monkey Factor B (cynomolgus monkey)
Assay: ELISA; cynomolgus Factor B coated at 5 µg/mL, mAb in 3-fold dilutions from 10 µg/mL (top concentration from paragraph 341; the sheet gives none)

binding: no binding (tested: 10 µg/mL)
B1: anti-factor Bb monoclonal antibody M17 (antibody, V domains shown)
VH: EVQLVESGGVLVKPGGSLKLSCAASGFTFSNFAMSWVRQTPAKRLEWVATISNGGGYTYYPDSVQGRFTISRDNANNTLYLQMSSLRSEDTALYYCARIYYGSSYEDWFAYWGQGTLVTVSA
VL: DIVMTPSHKFMSTSVGDRVSITCKASQDVGSAVAWYQQKPGHSPKLLIFWASTRHTGVPDRFTGSGSGTDFTLTISNVQSEDLADYFCQQYSSYPYTFGGGTRLEIK
